{
  "source": "PubChem BioAssay AID248",
  "about": "(DTP/NCI, 2004)",
  "tested_on": "L1210 leukemia ip in BDF1 mice, survival T/C",
  "assay": "NCI In Vivo Anticancer Drug Screen. Data for tumor model L1210 Leukemia (intraperitoneal) in B6D2F1 (BDF1) mice",
  "details": "T/C endpoint: mean survival time, higher T/C = longer survival",
  "note": "The list is a part of this screen's results and no random one: it gathers some chemical classes. Other doses and runs of a compound may be missing. T/C is the treated group as % of the vehicle group. Some doses have a count of surviving animals in place of a T/C: the source files T/C as zero there, which appears to mark a toxic dose or a test without result, not a measured value. Survivors were counted at the toxicity check, usually on the fifth day, unless a day is given; later deaths do not show. Schedule codes are those of the source, taken here to give the interval after Q, in days (D) or hours (H), and the number of doses after X. For survival time, the PubChem record calls one and a half times the control and up active, and a quarter to a half above the control has no call in these data; cut-offs in other NCI protocols can differ. Some entries were tested several times; the results are listed from low to high. Some schedule codes hold Z or #, which are not explained here. Some T/C values are followed by the survivors on the day toxicity was checked, most often the fifth; without a count or a note in brackets, all were alive then.",
  "data": [
    {"smiles": "NC(=O)c1[nH]cnc1/N=N\\N(CCCl)CCCl", "values": [
      {"measurement": "T/C", "setting": "dose: 180.0 mg/kg/injection, schedule: Q04DX Z (ip), vehicle: carboxymethylcellulose (CMC)", "value": "248 and 410 % of control"},
      {"measurement": "T/C", "setting": "dose: 180.0 mg/kg/injection, schedule: Q04DX Z (sc), vehicle: carboxymethylcellulose (CMC)", "value": "190 % of control"},
      {"measurement": "T/C", "setting": "dose: 180.0 mg/kg/injection, schedule: Q08DX002 (ip), vehicle: carboxymethylcellulose (CMC)", "value": "221 and 329 % of control"},
      {"measurement": "T/C", "setting": "dose: 180.0 mg/kg/injection, schedule: Q08DX003 (ip), vehicle: carboxymethylcellulose (CMC)", "value": "460 % of control"},
      {"measurement": "T/C", "setting": "dose: 180.0 mg/kg/injection, schedule: Q08DX Z (ip), vehicle: carboxymethylcellulose (CMC)", "value": "438 and 530 % of control"},
      {"measurement": "T/C", "setting": "dose: 187.0 mg/kg/injection, schedule: Q01DX001 (ip), vehicle: carboxymethylcellulose (CMC)", "value": "189 % of control"},
      {"measurement": "T/C", "setting": "dose: 192.1 mg/kg/injection, schedule: Q01DX001 (ip), vehicle: steroid suspending solution", "value": "483 % of control"},
      {"measurement": "T/C", "setting": "dose: 200.0 mg/kg/injection, schedule: Q01DX001 (ip), vehicle: carboxymethylcellulose (CMC)", "value": "133, 162, 175, 180, 225, 264 % of control"},
      {"measurement": "T/C", "setting": "dose: 200.0 mg/kg/injection, schedule: Q01DX001 (ip), vehicle: saline", "value": "217 and 228 % of control"},
      {"measurement": "T/C", "setting": "dose: 200.0 mg/kg/injection, schedule: Q01DX001 (ip), vehicle: steroid suspending solution, evaluated on day 6", "value": "217 % of control"},
      {"measurement": "T/C", "setting": "dose: 200.0 mg/kg/injection, schedule: Q01DX001 (ip), vehicle: steroid suspending solution, evaluated on day 28", "value": "186 % of control"},
      {"measurement": "T/C", "setting": "dose: 200.0 mg/kg/injection, schedule: Q01DX001 (ip), vehicle: steroid suspending solution, evaluated on day 60", "value": "154, 188, 217, 411, 437 % of control"},
      {"measurement": "T/C", "setting": "dose: 200.0 mg/kg/injection, schedule: Q01DX001 (ip), vehicle: water", "value": "369, 409, 621, 642 % of control"},
      {"measurement": "T/C", "setting": "dose: 200.0 mg/kg/injection, schedule: Q01DX001 (iv), vehicle: water", "value": "213, 301, 457 % of control"},
      {"measurement": "T/C", "setting": "dose: 200.0 mg/kg/injection, schedule: Q01DX005 (ip), vehicle: carboxymethylcellulose (CMC)", "value": "308 and 344 % of control"},
      {"measurement": "T/C", "setting": "dose: 200.0 mg/kg/injection, schedule: Q01DX009 (ip), vehicle: carboxymethylcellulose (CMC)", "value": "150 % of control"},
      {"measurement": "T/C", "setting": "dose: 200.0 mg/kg/injection, schedule: Q01DX009 (ip), vehicle: water", "value": "104 % of control [7 of 8 alive]"},
      {"measurement": "T/C", "setting": "dose: 200.0 mg/kg/injection, schedule: Q01DX009 (oral), vehicle: carboxymethylcellulose (CMC)", "value": "127 % of control"},
      {"measurement": "T/C", "setting": "dose: 200.0 mg/kg/injection, schedule: Q01DX017 (ip), vehicle: carboxymethylcellulose (CMC)", "value": "163 % of control"},
      {"measurement": "T/C", "setting": "dose: 200.0 mg/kg/injection, schedule: Q01DX Z (oral), vehicle: carboxymethylcellulose (CMC)", "value": "121 % of control"},
      {"measurement": "T/C", "setting": "dose: 200.0 mg/kg/injection, schedule: Q02DX009 (ip), vehicle: carboxymethylcellulose (CMC)", "value": "127 and 188 % of control"},
      {"measurement": "T/C", "setting": "dose: 200.0 mg/kg/injection, schedule: Q03HX003 (ip), vehicle: carboxymethylcellulose (CMC)", "value": "292 % of control"},
      {"measurement": "T/C", "setting": "dose: 200.0 mg/kg/injection, schedule: Q04DX002 (ip), vehicle: water", "value": "188 [2 of 3 alive] and 270 % of control"},
      {"measurement": "T/C", "setting": "dose: 200.0 mg/kg/injection, schedule: Q04DX003 (ip), vehicle: carboxymethylcellulose (CMC)", "value": "317 % of control"},
      {"measurement": "T/C", "setting": "dose: 200.0 mg/kg/injection, schedule: Q04DX003 (ip), vehicle: water", "value": "521 % of control"},
      {"measurement": "T/C", "setting": "dose: 200.0 mg/kg/injection, schedule: Q04DX003 (oral), vehicle: carboxymethylcellulose (CMC)", "value": "205 % of control"},
      {"measurement": "T/C", "setting": "dose: 200.0 mg/kg/injection, schedule: Q04DX005 (ip), vehicle: carboxymethylcellulose (CMC)", "value": "308, 353, 385 % of control"},
      {"measurement": "T/C", "setting": "dose: 200.0 mg/kg/injection, schedule: Q04DX Z (oral), vehicle: carboxymethylcellulose (CMC)", "value": "278 % of control"},
      {"measurement": "T/C", "setting": "dose: 200.0 mg/kg/injection, schedule: Q08DX002 (ip), vehicle: carboxymethylcellulose (CMC)", "value": "271 % of control"},
      {"measurement": "T/C", "setting": "dose: 200.0 mg/kg/injection, schedule: Q08DX002 (ip), vehicle: water", "value": "548 % of control"},
      {"measurement": "T/C", "setting": "dose: 200.0 mg/kg/injection, schedule: Q08DX002 (oral), vehicle: carboxymethylcellulose (CMC)", "value": "169 % of control"},
      {"measurement": "T/C", "setting": "dose: 200.0 mg/kg/injection, schedule: Q08DX003 (ip), vehicle: carboxymethylcellulose (CMC)", "value": "377 % of control"},
      {"measurement": "T/C", "setting": "dose: 200.0 mg/kg/injection, schedule: Q08DX Z (oral), vehicle: carboxymethylcellulose (CMC)", "value": "238 % of control"},
      {"measurement": "T/C", "setting": "dose: 200.0 mg/kg/injection, schedule: Q## X001 (ip), vehicle: carboxymethylcellulose (CMC)", "value": "329 % of control"},
      {"measurement": "T/C", "setting": "dose: 200.0 mg/kg/injection, schedule: Q## X003 (ip), vehicle: carboxymethylcellulose (CMC)", "value": "493 % of control"},
      {"measurement": "T/C", "setting": "dose: 200.0 mg/kg/injection, schedule: Q## X005 (ip), vehicle: carboxymethylcellulose (CMC)", "value": "427 % of control"},
      {"measurement": "T/C", "setting": "dose: 212.0 mg/kg/injection, schedule: Q01DX001 (ip), vehicle: other", "value": "181, 193, 218 % of control"},
      {"measurement": "T/C", "setting": "dose: 216.0 mg/kg/injection, schedule: Q01DX001 (ip), vehicle: other", "value": "103 % of control"},
      {"measurement": "T/C", "setting": "dose: 216.0 mg/kg/injection, schedule: Q01DX001 (ip), vehicle: steroid suspending solution", "value": "104 % of control"},
      {"measurement": "T/C", "setting": "dose: 225.0 mg/kg/injection, schedule: Q03DX Z (ip), vehicle: carboxymethylcellulose (CMC)", "value": "228 % of control"},
      {"measurement": "T/C", "setting": "dose: 230.0 mg/kg/injection, schedule: Q01DX001 (ip), vehicle: carboxymethylcellulose (CMC)", "value": "189, 232, 325 % of control"},
      {"measurement": "T/C", "setting": "dose: 230.0 mg/kg/injection, schedule: Q07DX Z (ip), vehicle: carboxymethylcellulose (CMC)", "value": "339 and 357 % of control"},
      {"measurement": "T/C", "setting": "dose: 250.0 mg/kg/injection, schedule: Q01DX001 (ip), vehicle: carboxymethylcellulose (CMC)", "value": "214, 235, 236, 254, 279 % of control"},
      {"measurement": "T/C", "setting": "dose: 250.0 mg/kg/injection, schedule: Q12HX004 (ip), vehicle: carboxymethylcellulose (CMC)", "value": "578 % of control"},
      {"measurement": "T/C", "setting": "dose: 250.0 mg/kg/injection, schedule: Q## X001 (ip), vehicle: carboxymethylcellulose (CMC)", "value": "305 % of control"},
      {"measurement": "survivor count", "setting": "dose: 252.0 mg/kg/injection, schedule: Q01DX006 (iv), vehicle: carboxymethylcellulose (CMC)", "value": "0 of 6"},
      {"measurement": "T/C", "setting": "dose: 252.0 mg/kg/injection, schedule: Q01DX Z (im), vehicle: carboxymethylcellulose (CMC)", "value": "121 and 148 % of control"},
      {"measurement": "T/C", "setting": "dose: 252.0 mg/kg/injection, schedule: Q01DX Z (ip), vehicle: carboxymethylcellulose (CMC)", "value": "95 % of control"},
      {"measurement": "T/C", "setting": "dose: 252.0 mg/kg/injection, schedule: Q01DX Z (oral), vehicle: carboxymethylcellulose (CMC)", "value": "125 % of control"},
      {"measurement": "T/C", "setting": "dose: 252.0 mg/kg/injection, schedule: Q01DX Z (sc), vehicle: carboxymethylcellulose (CMC)", "value": "123 and 127 % of control [5 of 6 alive]"},
      {"measurement": "T/C", "setting": "dose: 266.0 mg/kg/injection, schedule: Q01DX001 (ip), vehicle: clinical formulation", "value": "96 and 250 % of control"},
      {"measurement": "T/C", "setting": "dose: 274.4 mg/kg/injection, schedule: Q01DX001 (ip), vehicle: steroid suspending solution", "value": "395 % of control"},
      {"measurement": "T/C", "setting": "dose: 300.0 mg/kg/injection, schedule: Q01DX001 (ip), vehicle: carboxymethylcellulose (CMC)", "value": "231, 240, 274, 300, 309, 490 % of control"},
      {"measurement": "T/C", "setting": "dose: 300.0 mg/kg/injection, schedule: Q01DX001 (oral), vehicle: carboxymethylcellulose (CMC)", "value": "147 % of control"},
      {"measurement": "T/C", "setting": "dose: 300.0 mg/kg/injection, schedule: Q01DX005 (oral), vehicle: carboxymethylcellulose (CMC)", "value": "147 % of control"},
      {"measurement": "T/C", "setting": "dose: 300.0 mg/kg/injection, schedule: Q01DX017 (oral), vehicle: steroid suspending solution", "value": "107 [7 of 8 alive] and 134 % of control [7 of 8 alive]"},
      {"measurement": "T/C", "setting": "dose: 300.0 mg/kg/injection, schedule: Q01DX Z (sc), vehicle: carboxymethylcellulose (CMC)", "value": "209 % of control"},
      {"measurement": "T/C", "setting": "dose: 300.0 mg/kg/injection, schedule: Q03HX008 (oral), vehicle: carboxymethylcellulose (CMC)", "value": "121 % of control"},
      {"measurement": "T/C", "setting": "dose: 300.0 mg/kg/injection, schedule: Q04DX003 (ip), vehicle: carboxymethylcellulose (CMC)", "value": "336 % of control"},
      {"measurement": "T/C", "setting": "dose: 300.0 mg/kg/injection, schedule: Q04DX004 (ip), vehicle: other", "value": "161 % of control"},
      {"measurement": "T/C", "setting": "dose: 300.0 mg/kg/injection, schedule: Q04DX005 (ip), vehicle: carboxymethylcellulose (CMC)", "value": "385 % of control"},
      {"measurement": "T/C", "setting": "dose: 300.0 mg/kg/injection, schedule: Q04DX005 (oral), vehicle: carboxymethylcellulose (CMC)", "value": "247 % of control"}
    ]}
  ]
}
